Some of the results follow. Many values rest on one well or one pass, so single values are uncertain.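 The apoptosis fraction was the count of cleaved-PARP antibody-stained nuclei relative to all DNA-stained nuclei, imaged in 1,536-well plates. Screening doses were set so most cells survived, and baseline and induced cleaved-PARP levels vary greatly across cell lines.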
System: G361
Assay: cleaved PARP positive nuclei fraction relative to DMSO control; melanoma cells; higher = more apoptosis
Settings: library dose: low library concentration; 72 h

In order of falling “cleaved PARP positive nuclei fraction” value:
1. N#Cc1c(O)c2c(-c3ccc(-c4ccccc4O)cc3)csc2[nH]c1=O + COC(=O)c1sccc1S(=O)(=O)Nc1ccc(Nc2ccccc2)cc1OC [GSK0660] (first compound 2 µM, partner dose 1 µM)  182%
2. O=C(Nc1ccccc1)c1cc([N+](=O)[O-])ccc1Cl + Cc1cc([N+](=O)[O-])ccc1NS(=O)(=O)c1cc(Cl)ccc1Cl [FH535] (first compound 2 µM, partner dose 1 µM)  164%
3. CN(C)S(=O)(=O)c1ccc2c(c1)/C(=C/c1cc3c([nH]1)CCCC3)C(=O)N2 + COc1cc2c(Oc3ccc4[nH]c(C)cc4c3F)ncnc2cc1OCCCN1CCCC1 [cediranib] (first compound 0.4 µM, partner dose 0.4 µM)  148%
4. O=C(Nc1ccccc1)c1cc([N+](=O)[O-])ccc1Cl + COc1ccc(-c2ccc3c(N4CCOCC4)nc(N4C[C@@H](C)O[C@@H](C)C4)nc3n2)cc1CO [KU0063794] (first compound 2 µM, partner dose 0.02 µM)  138%
5. COC(=O)c1sccc1S(=O)(=O)Nc1ccc(Nc2ccccc2)cc1OC + Oc1cc(-c2nc(-c3ccccc3)[nH]c2-c2ccncc2)ccc1Cl [L779450] (first compound 1 µM, partner dose 0.2 µM)  137%
6. CN(C)S(=O)(=O)c1ccc2c(c1)/C(=C/c1cc3c([nH]1)CCCC3)C(=O)N2 + CN(NC(=O)CC(=O)NN(C)C(=S)c1ccccc1)C(=S)c1ccccc1 [STA4783] (first compound 0.4 µM, partner dose 0.006 µM)  131%
7. NCC(=O)Nc1ccc(-n2nc(C(F)(F)F)cc2-c2ccc3c(ccc4ccccc43)c2)cc1 + CN(NC(=O)CC(=O)NN(C)C(=S)c1ccccc1)C(=S)c1ccccc1 [STA4783] (first compound 1 µM, partner dose 0.006 µM)  125%
8. c1cc(-c2cnn3cc(-c4ccc(OCCN5CCCCC5)cc4)cnc23)ccn1 [Dorsomorphin] + CCCCCCCCCCCC1=C(O)C(=O)C=C(O)C1=O [Embelin] (first compound 0.4 µM, partner dose 1.2 µM)  124%
9. CCc1ccc(CCOc2ccc(CC3SC(=O)NC3=O)cc2)nc1 (configuration not stated) [pioglitazone] + O=C(O)C(=O)Nc1sc2c(c1C(=O)O)CCNC2 [TCS401] (first compound 2 µM, partner dose 1.66667 µM)  116%
10. COc1cc(N2CCC(N3CCN(C)CC3)CC2)ccc1Nc1ncc(Cl)c(Nc2ccccc2S(=O)(=O)C(C)C)n1 + CC(C)CCN1c2nc(Nc3cc(F)c(O)c(F)c3)ncc2N(C)C(=O)C1C [BID1870] (first compound 0.08 µM, partner dose 0.2 µM)  103%
11. CCN(CC)CCCCNc1ncc2cc(-c3cc(OC)cc(OC)c3)c(NC(=O)NC(C)(C)C)nc2n1 + Oc1cc(-c2nc(-c3ccccc3)[nH]c2-c2ccncc2)ccc1Cl [L779450] (first compound 0.1 µM, partner dose 0.2 µM)  102%
12. COc1cc2c(Oc3ccc4[nH]c(C)cc4c3F)ncnc2cc1OCCCN1CCCC1 [cediranib] + O=c1cc(-c2cccc3c2Sc2ccccc2S3)oc(N2CCOCC2)c1 [KU55933] (first compound 0.4 µM, partner dose 1 µM)  100%
13. COC(=O)c1sccc1S(=O)(=O)Nc1ccc(Nc2ccccc2)cc1OC + O=C(O)C(=O)Nc1sc2c(c1C(=O)O)CCNC2 [TCS401] (first compound 1 µM, partner dose 1.66667 µM)  95.2%
14. O=C(O)c1ccc(-c2c[nH]c3ncc(-c4ccccc4)cc23)cc1C1CCCC1 + COc1cc2c(Oc3ccc4[nH]c(C)cc4c3F)ncnc2cc1OCCCN1CCCC1 [cediranib] (first compound 0.16 µM, partner dose 0.4 µM)  86.1%
15. O=C1NC(=O)/C(=C/c2ccc(-c3ccc(F)cc3O)o2)S1 + CCCCCCCCCCCC1=C(O)C(=O)C=C(O)C1=O [Embelin] (first compound 1 µM, partner dose 1.2 µM)  80.9%
16. CN(C)S(=O)(=O)c1ccc2c(c1)/C(=C/c1cc3c([nH]1)CCCC3)C(=O)N2 + O=C(O)c1ccc(-c2c[nH]c3ncc(-c4ccccc4)cc23)cc1C1CCCC1 [GSK650394] (first compound 0.4 µM, partner dose 0.16 µM)  79.5%
17. NCC(=O)Nc1ccc(-n2nc(C(F)(F)F)cc2-c2ccc3c(ccc4ccccc43)c2)cc1 + COc1cc(N2CCC(N3CCN(C)CC3)CC2)ccc1Nc1ncc(Cl)c(Nc2ccccc2S(=O)(=O)C(C)C)n1 [NVP-TAE684] (first compound 1 µM, partner dose 0.08 µM)  69.2%
18. O=C1NC(=O)/C(=C/c2ccc(-c3ccc(F)cc3O)o2)S1 + Cc1cc([N+](=O)[O-])ccc1NS(=O)(=O)c1cc(Cl)ccc1Cl [FH535] (first compound 1 µM, partner dose 1 µM)  58.2%
19. O=C(O)c1ccc(-c2c[nH]c3ncc(-c4ccccc4)cc23)cc1C1CCCC1 + NCC(=O)Nc1ccc(-n2nc(C(F)(F)F)cc2-c2ccc3c(ccc4ccccc43)c2)cc1 [OSU03012] (first compound 0.16 µM, partner dose 1 µM)  57.1%
20. COc1cc2ncnc(Nc3ccc(Oc4ccccc4)cc3)c2cc1OC + O=C1NC(=O)/C(=C/c2ccc(-c3ccc(F)cc3O)o2)S1 [AS252424] (first compound 2 µM, partner dose 1 µM)  53.9%
21. COc1ccc(-c2ccc3c(N4CCOCC4)nc(N4C[C@@H](C)O[C@@H](C)C4)nc3n2)cc1CO + Cn1cc(/C=C2\C(=O)Nc3cccnc32)c2ccccc21 [GW441756] (first compound 0.02 µM, partner dose 0.4 µM)  38.6%
22. CCN(CC)CCCCNc1ncc2cc(-c3cc(OC)cc(OC)c3)c(NC(=O)NC(C)(C)C)nc2n1 + COc1cc(N2CCC(N3CCN(C)CC3)CC2)ccc1Nc1ncc(Cl)c(Nc2ccccc2S(=O)(=O)C(C)C)n1 [NVP-TAE684] (first compound 0.1 µM, partner dose 0.08 µM)  31.7%
